Source: patent US20110009628A1, “Compounds and Compositions for Modulating Lipid Levels and Methods of Preparing Same” (priority 2009, published 2011)
At least one structure is not confirmed: it was looked up by name or label, or the drawing left a doubt.

Test system: LDL ligand uptake activity in HepG2 cells
Experiment: DiI-LDL uptake in HepG2 cells (Example 12)
Format: cell-based, human
Settings: 10 uM, 20 hours (first symbol of cell)
Description: The combined beneficial effects of these novel compounds on elevation of LDLR mRNA levels likely through the mechanism of mRNA stabilization and their inhibitory activity towards PCSK9, the secreted protease that degrades LDLR protein, result in strong increases in LDL ligand uptake activity through increased receptor surface abundance. […] Briefly, HepG2 cells (2×10^5 cells/well) in 24-well culture plates were treated with various compounds at 10 and 40 uM concentrations for 20 hours. The fluorescent 1.1′-dioctadecyl-3,3,3′,3′-tetramethylindocarbocyanin perchlorate (DiI-LDL) (Biomedical Technologies, Stoughton, Mass.) at a concentration of 2 μg/ml was added to cells at the end of treatment. After 4 hours, the medium was removed; cells were washed with cold PBS, and were examined immediately under a fluorescent microscope (Nikon) at 200× amplification. The fluorescent intensity in compound-treated cells was compared to that in untreated control cells. […]

COc1ccc2c(c1OS(=O)(=O)c1ccccc1)CN1CCc3cc4c(cc3C1C2)OCCO4 (stereo not shown) [Compound 115, 11-Methoxy-6,7,8,9,14,14a-hexahydro-2H,3H-1,4-dioxano[5,6-g]isoquinolino[3,2-a]isoquinolin-10-yl benzenesulfonate]
Activity in LDL uptake (relative to control): −
